The test system of the data set is NtMYC2aΔN (C-terminal bHLH domain) (Nicotiana tabacum). Put plainly: competition with a labelled probe. To be noted: 500x mutated cold competitor maintained most of the shifted signal; purified recombinant protein; protein details: GST fusion, cleaved with thrombin; variant of G2-box probe of NtQPT2 promoter.

The comparison behind a weaker result is the experiment's own reference, which may not be listed here.

On to “AGTAGCTGAATCACATTTATTTATGGTTGTTGAATAGT (double strand) [mutated G2-box cold probe]”, for which the binding result is reported as “binds more weakly”.
